The experiment addresses AtGPRP3 fused to cCFP for BiFC (Arabidopsis thaliana) (UniProt Q9M0L8). Put plainly: split reporter; BiFC in Arabidopsis protoplasts; AtGPRP3-cCFP cotransformed with CAT1, CAT2 or CAT3 fused to nVenus; confocal microscopy.

By UniProt entry, the sequences of proteins in these tests, tags left out. Where a name states a change or a piece, a line headed by the entry shows the natural chain unless it says otherwise.
UniProt Q9M0L8: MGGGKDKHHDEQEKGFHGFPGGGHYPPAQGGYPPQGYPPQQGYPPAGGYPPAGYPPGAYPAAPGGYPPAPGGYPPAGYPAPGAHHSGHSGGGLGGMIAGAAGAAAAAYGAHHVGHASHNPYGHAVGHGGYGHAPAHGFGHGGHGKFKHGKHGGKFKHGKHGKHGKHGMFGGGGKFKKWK

This note sets out measurements from article PMC7504531.

No constants are given. Whether binding was seen depends on the method and setting. In cells and extracts the contact can be indirect. Binding can be weak; no strength is given. Tags and fused reporters may be left off the sequences shown.

B1: CAT3 fused to nVenus for BiFC (enzyme, UniProt Q42547 1-492)
chain: MDPYKYRPSSAYNAPFYTTNGGAPVSNNISSLTIGERGPVLLEDYHLIEKVANFTRERIPERVVHARGISAKGFFEVTHDISNLTCADFLRAPGVQTPVIVRFSTVVHERASPETMRDIRGFAVKFYTREGNFDLVGNNTPVFFIRDGIQFPDVVHALKPNPKTNIQEYWRILDYMSHLPESLLTWCWMFDDVGIPQDYRHMEGFGVHTYTLIAKSGKVLFVKFHWKPTCGIKNLTDEEAKVVGGANHSHATKDLHDAIASGNYPEWKLFIQTMDPADEDKFDFDPLDVTKIWPEDILPLQPVGRLVLNRTIDNFFNETEQLAFNPGLVVPGIYYSDDKLLQCRIFAYGDTQRHRLGPNYLQLPVNAPKCAHHNNHHEGFMNFMHRDEEINYYPSKFDPVRCAEKVPTPTNSYTGIRTKCVIKKENNFKQAGDRYRSWAPDRQDRFVKRWVEILSEPRLTHEIRGIWISYWSQADRSLGQKLASRLNVRPSI
Regarding B1, the binding entry is “binds”.

B2: CAT2 fused to nVenus for BiFC (enzyme, UniProt P25819 1-492)
chain: MDPYKYRPASSYNSPFFTTNSGAPVWNNNSSMTVGPRGPILLEDYHLVEKLANFDRERIPERVVHARGASAKGFFEVTHDISNLTCADFLRAPGVQTPVIVRFSTVIHERGSPETLRDPRGFAVKFYTREGNFDLVGNNFPVFFIRDGMKFPDMVHALKPNPKSHIQENWRILDFFSHHPESLNMFTFLFDDIGIPQDYRHMDGSGVNTYMLINKAGKAHYVKFHWKPTCGVKSLLEEDAIRVGGTNHSHATQDLYDSIAAGNYPEWKLFIQIIDPADEDKFDFDPLDVTKTWPEDILPLQPVGRMVLNKNIDNFFAENEQLAFCPAIIVPGIHYSDDKLLQTRVFSYADTQRHRLGPNYLQLPVNAPKCAHHNNHHEGFMNFMHRDEEVNYFPSRYDQVRHAEKYPTPPAVCSGKRERCIIEKENNFKEPGERYRTFTPERQERFIQRWIDALSDPRITHEIRSIWISYWSQADKSLGQKLASRLNVRPSI
Take B2: the binding entry is given as “binds”.
